Data reported in PMC10580122.
No constants are given. Whether binding was seen depends on the method and setting. For part of these data: Binding seen in cells or lysates may run through a third protein. Some entries that bind do so weakly or less than the wild type.

Amino acid sequences for entries named in this document (tags omitted). A change or cut given only in a name is not applied to a line headed by its entry. Residues count along the entry.
UniProt Q99665: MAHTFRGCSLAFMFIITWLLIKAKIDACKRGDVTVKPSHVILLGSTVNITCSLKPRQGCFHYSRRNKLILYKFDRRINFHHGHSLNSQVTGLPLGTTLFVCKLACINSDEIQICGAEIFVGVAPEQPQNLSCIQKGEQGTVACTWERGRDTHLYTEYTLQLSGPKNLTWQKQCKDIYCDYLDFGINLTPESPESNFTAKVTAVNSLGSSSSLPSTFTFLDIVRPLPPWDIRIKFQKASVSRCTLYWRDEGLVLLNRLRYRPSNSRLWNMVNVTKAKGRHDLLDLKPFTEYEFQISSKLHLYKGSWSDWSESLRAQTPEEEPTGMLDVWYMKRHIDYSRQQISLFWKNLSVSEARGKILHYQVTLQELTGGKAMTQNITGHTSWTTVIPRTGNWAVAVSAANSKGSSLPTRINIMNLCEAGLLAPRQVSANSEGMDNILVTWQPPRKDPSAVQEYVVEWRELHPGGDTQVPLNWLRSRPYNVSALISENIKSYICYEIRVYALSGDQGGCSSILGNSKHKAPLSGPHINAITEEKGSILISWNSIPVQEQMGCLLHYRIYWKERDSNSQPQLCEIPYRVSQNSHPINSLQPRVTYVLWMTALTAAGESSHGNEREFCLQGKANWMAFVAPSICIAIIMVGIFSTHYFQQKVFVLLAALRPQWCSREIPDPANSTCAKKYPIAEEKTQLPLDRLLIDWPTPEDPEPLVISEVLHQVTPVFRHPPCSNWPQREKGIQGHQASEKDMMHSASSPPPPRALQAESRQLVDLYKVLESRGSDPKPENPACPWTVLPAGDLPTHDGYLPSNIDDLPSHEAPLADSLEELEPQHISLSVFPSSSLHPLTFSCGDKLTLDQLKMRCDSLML
recombinant human IL-12Rβ2: residues 24-622 of Q99665
UniProt P29459: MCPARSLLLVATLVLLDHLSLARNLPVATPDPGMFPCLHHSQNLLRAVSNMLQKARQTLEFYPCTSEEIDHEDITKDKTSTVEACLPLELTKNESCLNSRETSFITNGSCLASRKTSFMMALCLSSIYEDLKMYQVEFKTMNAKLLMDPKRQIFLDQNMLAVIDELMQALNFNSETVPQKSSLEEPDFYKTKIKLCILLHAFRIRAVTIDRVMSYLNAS
UniProt P29460, residues 23-328: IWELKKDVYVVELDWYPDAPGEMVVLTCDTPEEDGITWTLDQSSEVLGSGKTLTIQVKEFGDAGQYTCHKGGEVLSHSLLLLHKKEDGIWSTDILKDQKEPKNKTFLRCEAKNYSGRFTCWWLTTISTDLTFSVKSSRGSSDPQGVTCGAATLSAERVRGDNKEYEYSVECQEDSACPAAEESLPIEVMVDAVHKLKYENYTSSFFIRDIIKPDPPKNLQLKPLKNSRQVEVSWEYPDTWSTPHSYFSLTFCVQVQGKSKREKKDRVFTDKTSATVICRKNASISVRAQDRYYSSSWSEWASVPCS

Columns and labels:
[1] = target: recombinant human IL-12Rβ2 (human) (UniProt Q99665); test: ELISA; solid-phase binding assay; wells coated with rIL-12Rβ1, rIL-12Rβ2 or no IL-12R chain; IL-12 or IL-12p40 monomer alone or with IL-35, each cytokine fixed at 5 μg/ml; overnight at 4°C; detected with anti-IL-12 or anti-IL-12p40 and HRP; both purified
[2] = target: recombinant human IL-12Rβ2 (human) (UniProt Q99665); test: ELISA; solid-phase binding assay; rIL-12Rβ2 coated on plate (5 μg/ml, 50 μl per well, PBS); variable concentrations of one cytokine with or without the other at a fixed 10 μg/ml; overnight at 4°C; bound cytokine detected with anti-IL-12 or anti-IL-35 and HRP; both purified
Human IL-35 (human) = Human IL-35 (human) (UniProt P29459+Q14213); test: co-IP; reporter cells stimulated with IL-12 or IL-35 (150 ng/ml) for 10 min at 37°C, washed, lysed (50 mM Tris-HCl, NaCl, 1% Triton X-100); about 100 μg lysate incubated with anti-IL-12 or anti-IL-35 Ab overnight at 4°C; eluate blotted with anti-IL-12RB2; only the target purified
Human IL-12 (human) = Human IL-12 (human) (UniProt P29459+P29460); test: as above

binding [1]	binding [2]	binding (Human IL-35 (human))	binding (Human IL-12 (human))	Substance
binds	binds			Human IL-12 (from UniProt P29459 23-219; P29460 23-328) (complex)
	binds			Human IL-35 (from UniProt P29459 23-219; Q14213 21-229) (complex)
no binding (tested: 5 μg/ml)				IL-12p40 monomer (from UniProt P29460 23-328)
		binds	binds	human IL-12Rβ2 expressed in IL-12 bioactivity reporter cells (from UniProt Q99665 24-862) (receptor)
